Cleaved PARP in drug-treated melanoma cells

Drug key:
MK-1775 (0.1 µM): C=CCn1c(=O)c2cnc(Nc3ccc(N4CCN(C)CC4)cc3)nc2n1-c1cccc(C(C)(C)O)n1
MK-2206 (2 µM): NC1(c2ccc(-c3nc4ccn5c(=O)[nH]nc5c4cc3-c3ccccc3)cc2)CCC1
nutlin-3 (0.5 µM): COc1ccc(C2=N[C@@H](c3ccc(Cl)cc3)[C@@H](c3ccc(Cl)cc3)N2C(=O)N2CCNC(=O)C2)c(OC(C)C)c1
tozasertib (0.03 µM): Cc1cc(Nc2cc(N3CCN(C)CC3)nc(Sc3ccc(NC(=O)C4CC4)cc3)n2)n[nH]1
PF-562271 (0.4 µM): CN(c1ncccc1CNc1nc(Nc2ccc3c(c2)CC(=O)N3)ncc1C(F)(F)F)S(C)(=O)=O

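The test systems are human melanoma cell lines, treated with a pair of drugs for 72 h and then stained and imaged. Values are the share of nuclei positive for cleaved PARP as a percentage of the same share in the DMSO control: 100 is the control level, higher means more apoptosis. Every drug was used at one fixed concentration, the higher of two screened. The file gives one value for each pair and line, without errors, so small differences may be noise. Basal and induced levels differ widely between cell lines.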 Only some of the drugs and lines screened are listed, without regard to their results. An entry leaves out what has no value listed here.

{"drugs": "tozasertib + MK-2206", "WM1745": 177, "IPC-298": 100, "UACC-257": 45.4, "WM1716": 87.9, "WM3526": 172, "SK-MEL-2": 121, "COLO 800": 45.0, "MeWo": 98.0, "C32": 380, "UACC-62": 190, "MZ2-MEL": 45.4, "RVH-421": 148, "WM3619": 112, "A375": 25.5, "COLO 792": 185, "WM115": 250, "WM451Lu": 100, "A2058": 173, "MEL-HO": 104, "SK-MEL-5": 144, "RPMI-7951": 135, "COLO 829": 342, "SK-MEL-28": 49.4, "G-361": 89.0, "LB2518-MEL": 86.8, "LOX IMVI": 164, "SK-MEL-30": 140, "IST-MEL1": 319, "A101D": 89.4}
{"drugs": "tozasertib + PF-562271", "WM1745": 396, "IPC-298": 97.2, "UACC-257": 136, "WM1716": 112, "WM3526": 45.2, "SK-MEL-2": 119, "COLO 800": 26.2, "MeWo": 104, "C32": 212, "UACC-62": 194, "MZ2-MEL": 886, "RVH-421": 563, "WM3619": 138, "A375": 90.2, "COLO 792": 126, "WM115": 298, "WM451Lu": 49.8, "A2058": 323, "MEL-HO": 184, "SK-MEL-5": 185, "RPMI-7951": 244, "COLO 829": 236, "SK-MEL-28": 183, "G-361": 110, "LB2518-MEL": 36.4, "LOX IMVI": 171, "SK-MEL-30": 80.1, "IST-MEL1": 288, "A101D": 157}
{"drugs": "tozasertib + nutlin-3", "WM1745": 147, "IPC-298": 26.1, "UACC-257": 107, "WM1716": 65.5, "WM3526": 89.1, "SK-MEL-2": 127, "COLO 800": 111, "MeWo": 149, "C32": 80.9, "UACC-62": 178, "MZ2-MEL": 151, "RVH-421": 133, "WM3619": 118, "A375": 22.6, "COLO 792": 60.4, "WM115": 260, "WM451Lu": 40.0, "A2058": 137, "MEL-HO": 74.6, "SK-MEL-5": 139, "RPMI-7951": 69.7, "COLO 829": 172, "SK-MEL-28": 67.7, "G-361": 138, "LB2518-MEL": 97.8, "LOX IMVI": 249, "SK-MEL-30": 136, "IST-MEL1": 204, "A101D": 59.3}
{"drugs": "PF-562271 + nutlin-3", "WM1745": 123, "IPC-298": 172, "UACC-257": 115, "WM1716": 142, "WM3526": 123, "SK-MEL-2": 170, "COLO 800": 116, "MeWo": 86.4, "C32": 565, "UACC-62": 313, "MZ2-MEL": 128, "RVH-421": 91.7, "WM3619": 131, "A375": 128, "COLO 792": 123, "WM115": 231, "WM451Lu": 157, "A2058": 151, "MEL-HO": 116, "SK-MEL-5": 70.4, "RPMI-7951": 170, "COLO 829": 143, "SK-MEL-28": 76.5, "G-361": 82.8, "LB2518-MEL": 90.0, "LOX IMVI": 58.8, "SK-MEL-30": 180, "IST-MEL1": 37.9, "A101D": 234}
{"drugs": "nutlin-3 + MK-2206", "WM1745": 262, "IPC-298": 107, "UACC-257": 28.4, "WM1716": 34.1, "WM3526": 60.9, "SK-MEL-2": 79.1, "COLO 800": 46.7, "MeWo": 131, "C32": 156, "UACC-62": 348, "MZ2-MEL": 31.8, "RVH-421": 487, "WM3619": 135, "A375": 79.6, "COLO 792": 230, "WM115": 432, "WM451Lu": 69.5, "A2058": 150, "MEL-HO": 65.5, "SK-MEL-5": 528, "RPMI-7951": 107, "COLO 829": 166, "SK-MEL-28": 54.0, "G-361": 130, "LB2518-MEL": 53.1, "LOX IMVI": 161, "SK-MEL-30": 221, "IST-MEL1": 39.7, "A101D": 288}
{"drugs": "MK-2206 + PF-562271", "WM1745": 126, "IPC-298": 300, "UACC-257": 113, "WM1716": 24.9, "WM3526": 122, "SK-MEL-2": 162, "COLO 800": 219, "MeWo": 169, "C32": 171, "UACC-62": 338, "MZ2-MEL": 184, "RVH-421": 38.6, "WM3619": 131, "A375": 67.6, "COLO 792": 307, "WM115": 488, "WM451Lu": 47.8, "A2058": 292, "MEL-HO": 34.3, "SK-MEL-5": 448, "RPMI-7951": 258, "COLO 829": 301, "SK-MEL-28": 87.9, "G-361": 161, "LB2518-MEL": 204, "LOX IMVI": 77.4, "SK-MEL-30": 165, "IST-MEL1": 48.0, "A101D": 188}
{"drugs": "tozasertib + MK-1775", "WM1745": 221, "IPC-298": 86.8, "UACC-257": 85.4, "WM1716": 241, "WM3526": 304, "SK-MEL-2": 204, "COLO 800": 441, "MeWo": 161, "C32": 70.5, "UACC-62": 136, "MZ2-MEL": 74.0, "RVH-421": 23.2, "WM3619": 149, "COLO 792": 203, "WM115": 221, "WM451Lu": 88.2, "A2058": 92.5, "MEL-HO": 116, "SK-MEL-5": 252, "RPMI-7951": 214, "COLO 829": 70.2, "SK-MEL-28": 323, "G-361": 141, "LB2518-MEL": 415, "LOX IMVI": 24.5, "SK-MEL-30": 161, "IST-MEL1": 74.7, "A101D": 81.7}
{"drugs": "MK-1775 + nutlin-3", "WM1745": 257, "IPC-298": 155, "UACC-257": 41.7, "WM1716": 195, "WM3526": 119, "SK-MEL-2": 137, "COLO 800": 263, "MeWo": 145, "C32": 233, "UACC-62": 218, "MZ2-MEL": 112, "RVH-421": 275, "WM3619": 183, "COLO 792": 83.4, "WM115": 337, "WM451Lu": 154, "A2058": 194, "MEL-HO": 70.5, "SK-MEL-5": 113, "RPMI-7951": 245, "COLO 829": 49.1, "SK-MEL-28": 246, "G-361": 113, "LB2518-MEL": 97.1, "LOX IMVI": 159, "SK-MEL-30": 197, "IST-MEL1": 117, "A101D": 77.4}

Data from the primary screen of doi:10.1371/journal.pone.0140310, rounded.